This is one part of the list. These are raw signals, not scaled to a control.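 First-pass screen: polymyxin B was added at a level that permeabilizes the Salmonella outer membrane while sparing the inner membrane. DMSO wells, with and without polymyxin B, defined maximum growth. Because plates differed from one another, each plate's data were ranked separately and the compounds with the lowest OD600 were carried forward as hits.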
Test system: Salmonella enterica serovar Typhimurium SL1344
Assay: bacterial growth OD600 after 18 h with compound and polymyxin B; higher = more bacterial growth (less inhibition)
Settings: 50 µM, Mueller-Hinton broth

Compound | bacterial growth OD600 (polymyxin B 0.75 µg/mL) | bacterial growth OD600 (polymyxin B 1 µg/mL)
c1ccc(-c2ncc3c(n2)CCCC3NCc2c[nH]cn2)cc1 (stereo unspecified) | 0.957 | –
COc1ccc(C(=O)C2CCCN(C(=O)c3ccc(C)c(C)c3)C2)cc1OC (stereo unspecified) | – | 0.913
Cc1ccc(CN2CCC(CN(C)Cc3cnc(-c4ccccc4)s3)CC2)o1 | 0.75 | –
COc1cc(OC)c(OC)cc1CN1CC[C@@H](N2CCC(O)CC2)[C@H](O)C1 | 0.769 | –
CC(c1nccs1)N(C)Cc1cn(Cc2ccccc2)nc1-c1ccc2c(c1)OCO2 (stereo unspecified) | – | 0.398
O=C(CCC1CCCN(Cc2ccccc2OC(F)F)C1)N1CCOCC1 (stereo unspecified) | – | 0.973
O=C(NC1CCCCC1)C1CCCN(C2CCN(C(=O)C3CC3)CC2)C1 (stereo unspecified) | 0.849 | –
COc1ccccc1CCN1CCC(CN(C)C(=O)Cc2cccs2)CC1 | – | 0.943
CCC(CC)CN1CCC2(CC1)c1ccccc1[C@@H](NC(=O)Cc1cccs1)[C@@H]2OC | 0.764 | –
O=C1O[C@@H]2CN(S(=O)(=O)N3CCCCC3)C[C@@H]2N1CCc1ccccn1 | 0.804 | –
CCOC(=O)C1(CCOc2ccccc2)CCCN(C(=O)/C=C/c2cnn(C)c2)C1 (stereo unspecified) | – | 0.738
OCCNc1ccc(-c2nc(-c3cccc(Cl)c3)no2)cn1 | 0.296 | –
Cc1cc(C)cc(N2CCN(C(=O)Cn3cc(NC(=O)CCC(=O)c4ccccc4)cn3)CC2=O)c1 | 0.837 | –
O=C(NCC1CCCN(C(=O)c2cscn2)C1)c1ccc(-c2ccccc2)cc1 (stereo unspecified) | – | 0.824
Cc1ccccc1C(=O)Nc1ccnn1C1CCN(C(=O)CCn2ccnc2C)CC1 | – | 0.795
CCOC(=O)C1(Cc2ccc(F)cc2)CCCN(C(=O)CN2CCCCC2=O)C1 (stereo unspecified) | – | 0.883

Compound | bacterial growth OD600 (polymyxin B 0.75 µg/mL) | bacterial growth OD600 (polymyxin B 1 µg/mL)
CCN(Cc1cc[nH]n1)CC1CCCN(CCc2cccc(OC)c2)C1 (stereo unspecified) | 0.809 | –
CC(c1ccccc1)c1cc(C(=O)NCc2ccccc2Cl)on1 (stereo unspecified) | 0.002 | –
COCc1ccc(C(=O)N2CCCC(C(=O)c3ccc4ccccc4c3)C2)s1 (stereo unspecified) | – | 0.01
COc1cc(C(=O)NCCCSC)ccc1OC1CCN(C(C)=O)CC1 | – | 0.871
Cc1cc(CN(C)C(=O)CC(c2cccc(O)c2)c2ccccc2Cl)on1 (stereo unspecified) | – | 0.656
CN1CCC(N(C)C(=O)CCC2CCCN(Cc3cccc(C(F)(F)F)c3)C2)CC1 (stereo unspecified) | – | 1.04
COc1cccc(CC(=O)NCC2Cc3cc(-c4ccnc(SC)n4)cc(Cl)c3O2)c1 (stereo unspecified) | 0.74 | –
CC(=O)c1ccccc1-c1ccc2c(c1)CC(CNC(=O)Cc1cccc(F)c1)O2 (stereo unspecified) | 0.793 | –
O=C1CCC(CCC(=O)N(CC2CCC2)CC2CCCO2)(Cc2ccc(Cl)cc2)N1 (stereo unspecified) | 0.863 | –
COc1ccc(-c2noc(CN3CCC(OCc4ccccc4)CC3)n2)cc1 | – | 0.948
CSc1ccc(CC2(CCC(=O)NCc3cccc(Cl)c3)CCC(=O)N2)cc1 (stereo unspecified) | 0.726 | –
Cc1c(C(=O)NCC2COc3ccccc3O2)cnn1-c1ncc2c(n1)-c1ccccc1CCC2 (stereo unspecified) | 0.006 | –
CCOC(=O)N1CCN(C(=O)CC2(c3ccccc3OC)CC(=O)N(CCCOC)C2=O)CC1 (stereo unspecified) | 0.896 | –
CCNC(=O)C1CCN(C2CCN(CCCc3ccccc3)CC2)CC1 | 0.833 | –
Cc1ccc2c(c1)CN(CC(=O)N1CCC(O)(c3ccccn3)CC1)CC(c1ccsc1)O2 (stereo unspecified) | 0.861 | –

2 entries picked at random from the list so far:
Compound | bacterial growth OD600 (polymyxin B 0.75 µg/mL) | bacterial growth OD600 (polymyxin B 1 µg/mL)
COc1cc(OC)c(OC)cc1CN1CC[C@@H](N2CCC(O)CC2)[C@H](O)C1 | 0.769 | –
COc1ccc(C(=O)C2CCCN(C(=O)c3ccc(C)c(C)c3)C2)cc1OC (stereo unspecified) | – | 0.913

Source: the supplement of paper PMC12889115
